This passage reports binding results from patent EP4659808A2 (Sanofi, dated 2025).

For the assay, the target named is T1, endogenous beta-DG (C2C12 cell lysate; mouse muscle tissue sections) (mouse), Q62165.
T1 chain: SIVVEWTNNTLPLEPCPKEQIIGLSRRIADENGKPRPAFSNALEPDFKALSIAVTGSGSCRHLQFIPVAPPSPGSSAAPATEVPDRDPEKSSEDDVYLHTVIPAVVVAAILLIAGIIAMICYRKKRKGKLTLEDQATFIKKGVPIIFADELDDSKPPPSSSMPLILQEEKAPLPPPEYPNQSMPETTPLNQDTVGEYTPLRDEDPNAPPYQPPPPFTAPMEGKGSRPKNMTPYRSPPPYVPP
Kind of assay: co-immunoprecipitation from C2C12 lysate, Western blot. Particulars: remark: other sources report otherwise. (Immunoblotting shows a protein as a band on a membrane.)

No constants are given. Whether binding was seen depends on the method and setting. Binding seen in cells or lysates may run through a third protein. Some binding calls cover weakened binding; strength is not graded here.

B1: endogenous alpha-DG from C2C12 cell lysates, Q62165 28-651 (receptor, UniProt Q62165 28-651, looked up)
chain: HWPSEPSEAVRDWKNQLEASMHSVLSDFQEAVPTVVGIPDGTAVVGRSFRVSIPTDLIASSGEIIKVSAAGKEALPSWLHWDPHSHILEGLPLDTDKGVHYISVSAARLGANGSHVPQTSSVFSIEVYPEDHNEPQSVRAASSDPGEVVPSACAADEPVTVLTVILDADLTKMTPKQRIDLLNRMQSFSEVELHNMKLVPVVNNRLFDMSAFMAGPGNAKKVVENGALLSWKLGCSLNQNSVPDIRGVETPAREGAMSAQLGYPVVGWHIANKKPTLPKRLRRQIHATPTPVTAIGPPTTAIQEPPSRIVPTPTSPAIAPPTETMAPPVRDPVPGKPTVTIRTRGAIIQTPTLGPIQPTRVSEAGTTVPGQIRPTLTIPGYVEPTAVITPPTTTTKKPRVSTPKPATPSTDSSTTTTRRPTKKPRTPRPVPRVTTKAPITRLETASPPTRIRTTTSGVPRGGEPNQRPELKNHIDRVDAWVGTYFEVKIPSDTFYDNEDTTTDKLKLTLKLREQQLVGEKSWVQFNSNSQLMYGLPDSSHVGKHEYFMHATDKGGLSAVDAFEIHVHKRPQGDKAPARFKARLAGDPAPVVNDIHKKIALVKKLAFAFGDRNCSSITLQNITRG
With B1, the binding entry is on record as “binds”.
